Data as given in PubChem BioAssay AID504804 (Drosophila RNAi Screening Center, 2011)
The screen tested about 19,000 reagents; shown is an unselected part of those that have a named target and a result. Of all reagents, 47 (0.25%) got an active call. 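Signals are raw, not normalised; exact z-scores behind calls not deposited; actives needed confirmation, so some wells reaching 2 SD are inactive.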 Entries without a mark were called inactive. The numbers tell different reagents against one gene apart. A plus sign joins genes that one reagent is predicted to hit.

Screen: 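Knock-downs shielding fly cells from apoptosis caused by DNA damage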 (primary screen)
Cell system: Drosophila Kc cells
Knock-down reagent: long dsRNA against Drosophila genes, 0.5 µg dsRNA per well
Time to read-out: 96 h (48 h knock-down, then 48 h drug)
Conditions: doxorubicin 5 µg/ml for 48 h, added 48 h after dsRNA
Detection: 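Luminescent ATP counts per replicate, not normalised, reflecting viable cells after 48 h dsRNA knock-down followed by 48 h of 5 µg/ml doxorubicin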
Scale: raw ATP luminescence: higher = more viable cells, protection from doxorubicin
Call rule: 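Active when both duplicate wells lie at least 2 SD above the plate mean and protection is confirmed by rescreening and independent dsRNAs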

no.	predicted target	reagent	raw ATP luminescence, replicate 1	raw ATP luminescence, replicate 2
1	CG5254	1	59330	71070
2	Vmat (Vesicular monoamine transporter)	1	73010	62267
3	CG15344 (retired record)	1	38710	43690
4	CG13494	1	58263	48280
5	lectin-33A	1	40867	87097
6	Or24a (Odorant receptor 24a)	1	28747	25897
7	pont (pontin)	1	45550	57330
8	Ugt49B1 (UDP-glycosyltransferase family 49 member B1)	1	46930	43417
9	CG3407	1	1.01e5	73513
10	CG10165	1	90483	47670
11	D1 (D1 chromosomal protein)	1	70780	26403
12	lqf (liquid facets)	1	42167	42740
13	CG17816	1	58400	61783
14	Tbh (Tyramine beta hydroxylase)	1	26160	41310
15	Him (Holes in muscle)	1	3.34e5	3.24e5
16	CG13887	1	64933	53480
17	Femcoat	1	39990	48540
18	mbo (members only)	1	46320	20760
19	CG9698	1	57010	53030
20	CG32483	1	1.53e5	1.73e5
21	CG32815	1	72880	52470
22	kl-5 (retired record)	1	3.07e5	2.99e5
23	kl-5 (retired record)	2	2.24e5	1.92e5
24	kl-5 (retired record)	3	2.72e5	2.57e5
25	kl-5 (retired record)	4	2.09e5	2.08e5
26	Cdlc2 (Cytoplasmic dynein light chain 2)	1	1.06e5	82363
27	Scgbeta (Sarcoglycan beta)	1	58757	41843
28	CG6304	1	46407	76517
29	CG6195	1	58760	83660
30	PIG-Q (Phosphatidylinositol glycan anchor biosynthesis class Q)	1	1.89e5	2.18e5
31	CG33110	1	18730	17890
32	CG33110	2	78980	71400
33	CG14315	1	44120	55810
34	eIF4H1 (eukaryotic translation initiation factor 4H1)	1	2.09e5	2.16e5
35	CG42735 (retired record)	1	2.80e5	3.28e5
36	sd (scalloped)	1	3.42e5	3.72e5
37	l(3)72Dn (lethal (3) 72Dn)	1	19357	23310
38	Nadk2 (NAD kinase 2, mitochondrial)	1	80063	60977
39	Ir76b (Ionotropic receptor 76b)	1	68613	59067
40	Sap-r (Saposin-related)	1	1.77e5	1.62e5
41	beat-Ib (beaten path Ib)	1	69193	74677
42	Naglu (N-acetyl-alpha-glucosaminidase)	1	1.33e5	84323
43	Smg5 (Smg5 nonsense mediated mRNA decay factor)	1	71060	51837
44	CG17154	1	97997	80810
45	cyst (cysts)	1	86053	56677
46	mRpL47 (mitochondrial ribosomal protein L47)	1	57123	53793
47	Ctr9	1	60313	70953
48	CG32444	1	24867	18050
49	Tim8	1	3.95e5	3.23e5
50	flip (flippy)	1	67217	56447
51	FANCI (Fanconi anemia complementation group I)	1	46470	78213
52	Gdap1	1	1.08e5	89177
53	CG5466	1	17330	19500
54	Gagr (Gag-related)	1	24537	23527
55	Flo1 (Flotillin 1)	1	82000	87227
56	Sfp26Ad (Seminal fluid protein 26Ad)	1	2.44e5	2.68e5
57	srl (spargel)	1	67480	52437
58	Cpr76Bd (Cuticular protein 76Bd)	1	56753	64800
59	Tig (Tiggrin)	1	30970	25283
60	CG31743 + CG34313	1	1.06e5	73930
61	CG31743 + CG34313	2	67987	73710
62	boi	1	54330	60340
63	boi	2	56630	57370
64	mod(mdg4) + pre-mod(mdg4)-U	1	2.07e5	2.20e5
65	CG41520	1	1.85e5	2.00e5
66	CG41520	2	3.07e5	2.71e5
67	Mekk1	1	65680	58860
68	Mekk1	2	50760	57660
69	Pu (Punch)	1	66230	60533
70	CG14715	1	54790	29843
71	CG17806	1	38783	34233
72	Klp98A (Kinesin-like protein at 98A)	1	38650	44720
73	t (tan)	1	3.20e5	3.13e5
74	CG5245	1	56200	44780
75	Diap2 (Death-associated inhibitor of apoptosis 2)	1	49417	58297
76	CG2816	1	19863	17663
77	CG32720	1	1.54e5	1.74e5
78	CG3436	1	77930	59893
79	CG10616	1	40077	43360
80	CG18269	1	23423	35577
81	SLO2 (slowpoke 2)	1	20187	18180
82	SLO2 (slowpoke 2)	2	36627	79033
83	SLO2 (slowpoke 2)	3	50187	79033
84	SLO2 (slowpoke 2)	4	45543	67940
85	SLO2 (slowpoke 2)	5	24973	28310

Targets above whose target name begins with M or m (5):
predicted target	reagent	raw ATP luminescence, replicate 1	raw ATP luminescence, replicate 2
mbo (members only)	1	46320	20760
mRpL47 (mitochondrial ribosomal protein L47)	1	57123	53793
mod(mdg4) + pre-mod(mdg4)-U	1	2.07e5	2.20e5
Mekk1	1	65680	58860
Mekk1	2	50760	57660
